Holding throughout (test): two-hybrid
Assay [1] deals with T1, Schizosaccharomyces pombe Vps25 (Schizosaccharomyces pombe) (UniProt O74967).
T1 sequence: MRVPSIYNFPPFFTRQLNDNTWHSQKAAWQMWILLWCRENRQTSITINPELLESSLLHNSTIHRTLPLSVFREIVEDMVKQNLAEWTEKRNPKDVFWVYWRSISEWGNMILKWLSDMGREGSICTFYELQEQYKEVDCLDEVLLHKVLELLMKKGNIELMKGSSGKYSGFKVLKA

Assay [2] addresses T2, Schizosaccharomyces pombe Did4 (Schizosaccharomyces pombe) (UniProt O14177).
T2 sequence: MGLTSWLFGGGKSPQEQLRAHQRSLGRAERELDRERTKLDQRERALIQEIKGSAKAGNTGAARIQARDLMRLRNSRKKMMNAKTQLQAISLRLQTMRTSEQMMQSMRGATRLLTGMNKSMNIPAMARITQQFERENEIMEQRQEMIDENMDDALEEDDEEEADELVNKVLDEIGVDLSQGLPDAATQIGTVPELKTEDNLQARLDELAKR

Assay [3] has as its target T3, Schizosaccharomyces pombe Vps28 (Schizosaccharomyces pombe) (UniProt O13872).
T3 sequence: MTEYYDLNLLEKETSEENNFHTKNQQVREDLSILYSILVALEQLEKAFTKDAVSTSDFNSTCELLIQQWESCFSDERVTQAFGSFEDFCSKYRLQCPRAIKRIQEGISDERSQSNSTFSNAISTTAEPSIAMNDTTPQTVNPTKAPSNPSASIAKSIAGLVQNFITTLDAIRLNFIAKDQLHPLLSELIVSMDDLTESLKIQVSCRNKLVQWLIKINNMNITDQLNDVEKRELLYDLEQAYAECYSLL

Assay [4] has as its target T4, Schizosaccharomyces pombe Vps36 (Schizosaccharomyces pombe) (UniProt O43038).
T4 sequence: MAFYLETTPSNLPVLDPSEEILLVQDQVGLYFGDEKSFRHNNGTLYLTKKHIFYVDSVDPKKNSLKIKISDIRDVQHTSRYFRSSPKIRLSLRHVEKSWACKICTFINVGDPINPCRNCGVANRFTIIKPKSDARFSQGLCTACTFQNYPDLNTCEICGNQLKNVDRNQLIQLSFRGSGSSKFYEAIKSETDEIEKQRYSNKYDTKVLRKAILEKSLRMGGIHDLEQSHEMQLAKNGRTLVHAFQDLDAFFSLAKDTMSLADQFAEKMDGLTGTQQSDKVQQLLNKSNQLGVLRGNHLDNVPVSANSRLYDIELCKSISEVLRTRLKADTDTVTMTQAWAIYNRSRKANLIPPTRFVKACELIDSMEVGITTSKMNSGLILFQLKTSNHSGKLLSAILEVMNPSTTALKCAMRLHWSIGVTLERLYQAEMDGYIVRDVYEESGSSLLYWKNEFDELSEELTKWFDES

We go through five molecules from doi:10.1101/2021.08.17.456605.

These are yes or no findings as the source states them, for the method shown. Some entries that bind do so weakly or less than the wild type. Sequences can lack the tags named with a protein.

B1: Schizosaccharomyces pombe Vps20 (protein, UniProt O94318 1-226)
chain: MGVNSSKINDKDRSILSIKEQRDKLLRYSKRLEKIEQLEIDIARKCLRDSDKRGALRALKAKKLYSGLITQTYGQLGNIEQLLSTIEFTLIQKDVMFGLQEGTNLIRQLQADMPLERVGRICNDRDEAMSYVDEVNDMLQGRMSRDQEDEIQEELDSLIREQEDEKVKDLEKPGFTPSTGVDVLPSVPLKNAIPSLDESFPKAASVSNTSSAVVIDEELRKDPVLG
For B1, the binding entry in assay [1] is “binds”.

B2: Schizosaccharomyces pombe Vps24 (protein, UniProt O14296 1-231)
chain: MQTVRSYFFGPTPQEQNRKWQSIIRKEQRQLDRQVYHLKAGRKKAEVQLKQLAKQSDITNMRILAKEIARANRHGKRLAESKALLGSLSLQLNDQMAMLKIQGTMQSSTKIMQDVSSLIRLPQLSETMRNLSMELTKAGVLEEMRDEMFLPVEDDEELMDLADEDEEVQEILTKYNVIPAPSEKAADAATHREQSLKQALPSLSNGIAKDSTEIDEEQLLDIRDKLDALKS
Regarding B2, the binding result in assay [2] is “binds”.

B3: Schizosaccharomyces pombe Sst6 (protein, UniProt Q7Z992 1-487)
chain: MSDHAINEHPSRILNTIEKIRFWKNGLAEELELLFRKQCEDTFTLQAINIEVDTQDENKIEEVRIYLSTPAFDKTILTSACITVRSYYPSQPPIVQLLDEKGGKHKYTSLLLQLWKNERSVFNIYRLVQALIKQDFEREHTSPPELPTKLVNTIEKLKVKEENEAPPVIPAKPFSSSSEQHFRKVPALPSKLPPKPLKITANSSLGQETNSNSSSFQSTLFSLNTAPFSATSQQLVHDSVSLRRPSSNIPAQKPIPPKPEQNEIIITKDTPSLKDKYSKPALLPQKPKVSKGQIVQQVSVFSTGKKIESQSLLNLIDTDIETPLKGSSELLYSEDFKPNVDPVKIQQILHKQNKIIEEKWISQIRISKNLEVKQRLLDQERHALETLAKNIENNRFILGKRRRKAREALQKLDNLKDLSVQELFIIPSERELKYYELKRKDEKLDEGIRALNQALHHESIMPASWLKGIKLLARQQFLIRDEMLQYS
In the case of B3, the binding entry in assay [3] was “binds”.

B4: Schizosaccharomyces pombe Vps36 (protein, UniProt O43038 1-467)
chain: MAFYLETTPSNLPVLDPSEEILLVQDQVGLYFGDEKSFRHNNGTLYLTKKHIFYVDSVDPKKNSLKIKISDIRDVQHTSRYFRSSPKIRLSLRHVEKSWACKICTFINVGDPINPCRNCGVANRFTIIKPKSDARFSQGLCTACTFQNYPDLNTCEICGNQLKNVDRNQLIQLSFRGSGSSKFYEAIKSETDEIEKQRYSNKYDTKVLRKAILEKSLRMGGIHDLEQSHEMQLAKNGRTLVHAFQDLDAFFSLAKDTMSLADQFAEKMDGLTGTQQSDKVQQLLNKSNQLGVLRGNHLDNVPVSANSRLYDIELCKSISEVLRTRLKADTDTVTMTQAWAIYNRSRKANLIPPTRFVKACELIDSMEVGITTSKMNSGLILFQLKTSNHSGKLLSAILEVMNPSTTALKCAMRLHWSIGVTLERLYQAEMDGYIVRDVYEESGSSLLYWKNEFDELSEELTKWFDES
With B4, the binding entry in assay [1] is on record as “binds”.

B5: Schizosaccharomyces pombe Vps28 (protein, UniProt O13872 1-248)
chain: MTEYYDLNLLEKETSEENNFHTKNQQVREDLSILYSILVALEQLEKAFTKDAVSTSDFNSTCELLIQQWESCFSDERVTQAFGSFEDFCSKYRLQCPRAIKRIQEGISDERSQSNSTFSNAISTTAEPSIAMNDTTPQTVNPTKAPSNPSASIAKSIAGLVQNFITTLDAIRLNFIAKDQLHPLLSELIVSMDDLTESLKIQVSCRNKLVQWLIKINNMNITDQLNDVEKRELLYDLEQAYAECYSLL
As to B5, the binding entry in assay [4] is reported as “binds”.
